Results deposited as PubChem BioAssay AID1159584 (Peter MacCallum Cancer Centre, 2016)
Test: 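Genes whose loss is lethal only together with E-cadherin loss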 (primary screen). System: human MCF10A breast epithelial cells, parental and CDH1-null. Reagents: siRNA against human genes. Measured: 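ATP luminescence (CellTiter-Glo) viability per line relative to mean mock wells over all plates, and the ratio of CDH1-null to parental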. Reading the numbers: CDH1-null / parental viability ratio: higher = CDH1-null cells survive relatively better than parental; CDH1-null viability vs mock: higher = more viable CDH1-null cells. Units: CDH1-null viability vs mock in fraction of mock.
The whole screen tested about 18,000 reagents; shown is a part drawn at random. Further read-outs or replicates are left out here. The record does not give: the amount of reagent, the time to read-out.

{"target": "LY6K", "CDH1-null / parental viability ratio": 0.89, "CDH1-null viability vs mock": 0.9}
{"target": "YKT6", "CDH1-null / parental viability ratio": 0.93, "CDH1-null viability vs mock": 0.69}
{"target": "RAPGEF5", "CDH1-null / parental viability ratio": 1.2, "CDH1-null viability vs mock": 0.96}
{"target": "ADTRP", "CDH1-null / parental viability ratio": 1.22, "CDH1-null viability vs mock": 0.73}
{"target": "ELAPOR1", "CDH1-null / parental viability ratio": 0.93, "CDH1-null viability vs mock": 0.78}
{"target": "PRSS21", "CDH1-null / parental viability ratio": 1.29, "CDH1-null viability vs mock": 0.8}
{"target": "SLC35F2", "CDH1-null / parental viability ratio": 1.27, "CDH1-null viability vs mock": 0.52}
{"target": "SLF1", "CDH1-null / parental viability ratio": 1.12, "CDH1-null viability vs mock": 0.57}
{"target": "BPY2B", "CDH1-null / parental viability ratio": 0.93, "CDH1-null viability vs mock": 0.8}

Next part (2 carried over from the part before).
{"target": "SLF1", "CDH1-null / parental viability ratio": 1.12, "CDH1-null viability vs mock": 0.57}
{"target": "BPY2B", "CDH1-null / parental viability ratio": 0.93, "CDH1-null viability vs mock": 0.8}
{"target": "CAV1", "CDH1-null / parental viability ratio": 0.93, "CDH1-null viability vs mock": 1.02}
{"target": "ZFP14", "CDH1-null / parental viability ratio": 0.93, "CDH1-null viability vs mock": 0.77}
{"target": "TBC1D10B", "CDH1-null / parental viability ratio": 1.1, "CDH1-null viability vs mock": 0.9}
{"target": "EIF3H", "CDH1-null / parental viability ratio": 1.25, "CDH1-null viability vs mock": 0.8}
{"target": "COL4A1", "CDH1-null / parental viability ratio": 1.14, "CDH1-null viability vs mock": 1}
{"target": "PTER", "CDH1-null / parental viability ratio": 1.05, "CDH1-null viability vs mock": 0.84}
{"target": "MICAL1", "CDH1-null / parental viability ratio": 0.91, "CDH1-null viability vs mock": 1.15}
{"target": "LAG3", "CDH1-null / parental viability ratio": 0.81, "CDH1-null viability vs mock": 0.57}
{"target": "MCEMP1", "CDH1-null / parental viability ratio": 0.85, "CDH1-null viability vs mock": 0.46}
{"target": "P3H1", "CDH1-null / parental viability ratio": 1.01, "CDH1-null viability vs mock": 0.93}
{"target": "PTGS2", "CDH1-null / parental viability ratio": 0.85, "CDH1-null viability vs mock": 0.82}
{"target": "ADRA1A", "CDH1-null / parental viability ratio": 0.9, "CDH1-null viability vs mock": 0.79}
{"target": "HOXD12", "CDH1-null / parental viability ratio": 1.05, "CDH1-null viability vs mock": 0.86}
{"target": "LINC03040", "CDH1-null / parental viability ratio": 0.89, "CDH1-null viability vs mock": 0.57}
{"target": "STH", "CDH1-null / parental viability ratio": 0.9, "CDH1-null viability vs mock": 0.7}
